From paper doi:10.1101/508887
These are yes or no findings as the source states them, for the method shown. In cells and extracts the contact can be indirect. Some results given as binding are weak or reduced against the parent protein; the word gives no strength. For some assays here: Where a sequence is shown, tags or fusion partners need not be part of it.

The chains behind the UniProt entries cited, without tags or fusion partners.
UniProt O60282: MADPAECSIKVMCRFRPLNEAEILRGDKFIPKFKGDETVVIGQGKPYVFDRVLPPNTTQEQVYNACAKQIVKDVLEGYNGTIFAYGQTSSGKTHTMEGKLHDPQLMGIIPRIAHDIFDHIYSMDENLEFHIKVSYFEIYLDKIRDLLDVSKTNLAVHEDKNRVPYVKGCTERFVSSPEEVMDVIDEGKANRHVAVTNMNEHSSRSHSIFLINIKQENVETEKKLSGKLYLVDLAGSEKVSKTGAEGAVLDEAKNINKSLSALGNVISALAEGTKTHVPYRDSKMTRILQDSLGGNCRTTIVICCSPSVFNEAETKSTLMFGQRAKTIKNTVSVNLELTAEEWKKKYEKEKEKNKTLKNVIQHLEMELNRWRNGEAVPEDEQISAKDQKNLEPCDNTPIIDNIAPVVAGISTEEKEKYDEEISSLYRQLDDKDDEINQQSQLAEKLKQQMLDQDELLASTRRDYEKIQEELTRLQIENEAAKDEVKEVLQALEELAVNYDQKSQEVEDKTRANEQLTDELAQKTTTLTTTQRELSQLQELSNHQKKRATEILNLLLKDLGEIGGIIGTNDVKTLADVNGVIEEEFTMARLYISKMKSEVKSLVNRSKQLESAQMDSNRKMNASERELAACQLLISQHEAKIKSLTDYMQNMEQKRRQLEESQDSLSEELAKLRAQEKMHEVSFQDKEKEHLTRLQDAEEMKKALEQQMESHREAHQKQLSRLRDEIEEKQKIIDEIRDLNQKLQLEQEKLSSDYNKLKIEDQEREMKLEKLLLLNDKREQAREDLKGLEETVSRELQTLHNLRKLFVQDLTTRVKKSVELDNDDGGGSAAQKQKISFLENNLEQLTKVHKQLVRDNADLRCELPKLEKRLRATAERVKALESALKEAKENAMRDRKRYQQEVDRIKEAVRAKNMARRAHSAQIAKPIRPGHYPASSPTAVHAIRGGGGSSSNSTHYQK
UniProt Q12840: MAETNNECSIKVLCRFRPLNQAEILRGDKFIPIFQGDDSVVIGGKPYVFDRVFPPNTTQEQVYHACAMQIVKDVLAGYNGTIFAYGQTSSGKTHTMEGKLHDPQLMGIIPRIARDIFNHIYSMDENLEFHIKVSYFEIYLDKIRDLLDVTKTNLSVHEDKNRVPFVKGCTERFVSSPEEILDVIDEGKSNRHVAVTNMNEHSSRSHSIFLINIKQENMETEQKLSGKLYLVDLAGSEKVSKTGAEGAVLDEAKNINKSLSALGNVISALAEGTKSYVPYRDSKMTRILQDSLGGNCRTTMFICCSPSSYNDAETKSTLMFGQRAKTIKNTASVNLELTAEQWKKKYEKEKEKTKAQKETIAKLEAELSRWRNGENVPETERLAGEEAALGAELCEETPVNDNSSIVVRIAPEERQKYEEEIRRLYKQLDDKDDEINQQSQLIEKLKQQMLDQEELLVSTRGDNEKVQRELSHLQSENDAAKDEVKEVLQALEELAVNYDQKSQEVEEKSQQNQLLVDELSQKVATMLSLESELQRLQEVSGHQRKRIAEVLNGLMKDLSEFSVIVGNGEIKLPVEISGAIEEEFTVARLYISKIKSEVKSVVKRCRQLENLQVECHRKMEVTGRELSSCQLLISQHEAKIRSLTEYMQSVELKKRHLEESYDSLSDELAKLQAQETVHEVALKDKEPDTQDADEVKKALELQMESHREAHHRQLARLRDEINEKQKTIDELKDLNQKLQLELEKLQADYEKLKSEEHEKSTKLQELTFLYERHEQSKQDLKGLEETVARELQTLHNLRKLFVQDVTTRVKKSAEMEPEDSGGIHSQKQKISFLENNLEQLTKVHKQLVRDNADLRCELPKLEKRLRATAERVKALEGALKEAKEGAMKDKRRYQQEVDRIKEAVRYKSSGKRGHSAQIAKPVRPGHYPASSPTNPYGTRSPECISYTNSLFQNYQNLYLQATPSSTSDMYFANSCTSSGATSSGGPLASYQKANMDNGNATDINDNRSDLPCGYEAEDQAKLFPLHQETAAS
UniProt Q12756: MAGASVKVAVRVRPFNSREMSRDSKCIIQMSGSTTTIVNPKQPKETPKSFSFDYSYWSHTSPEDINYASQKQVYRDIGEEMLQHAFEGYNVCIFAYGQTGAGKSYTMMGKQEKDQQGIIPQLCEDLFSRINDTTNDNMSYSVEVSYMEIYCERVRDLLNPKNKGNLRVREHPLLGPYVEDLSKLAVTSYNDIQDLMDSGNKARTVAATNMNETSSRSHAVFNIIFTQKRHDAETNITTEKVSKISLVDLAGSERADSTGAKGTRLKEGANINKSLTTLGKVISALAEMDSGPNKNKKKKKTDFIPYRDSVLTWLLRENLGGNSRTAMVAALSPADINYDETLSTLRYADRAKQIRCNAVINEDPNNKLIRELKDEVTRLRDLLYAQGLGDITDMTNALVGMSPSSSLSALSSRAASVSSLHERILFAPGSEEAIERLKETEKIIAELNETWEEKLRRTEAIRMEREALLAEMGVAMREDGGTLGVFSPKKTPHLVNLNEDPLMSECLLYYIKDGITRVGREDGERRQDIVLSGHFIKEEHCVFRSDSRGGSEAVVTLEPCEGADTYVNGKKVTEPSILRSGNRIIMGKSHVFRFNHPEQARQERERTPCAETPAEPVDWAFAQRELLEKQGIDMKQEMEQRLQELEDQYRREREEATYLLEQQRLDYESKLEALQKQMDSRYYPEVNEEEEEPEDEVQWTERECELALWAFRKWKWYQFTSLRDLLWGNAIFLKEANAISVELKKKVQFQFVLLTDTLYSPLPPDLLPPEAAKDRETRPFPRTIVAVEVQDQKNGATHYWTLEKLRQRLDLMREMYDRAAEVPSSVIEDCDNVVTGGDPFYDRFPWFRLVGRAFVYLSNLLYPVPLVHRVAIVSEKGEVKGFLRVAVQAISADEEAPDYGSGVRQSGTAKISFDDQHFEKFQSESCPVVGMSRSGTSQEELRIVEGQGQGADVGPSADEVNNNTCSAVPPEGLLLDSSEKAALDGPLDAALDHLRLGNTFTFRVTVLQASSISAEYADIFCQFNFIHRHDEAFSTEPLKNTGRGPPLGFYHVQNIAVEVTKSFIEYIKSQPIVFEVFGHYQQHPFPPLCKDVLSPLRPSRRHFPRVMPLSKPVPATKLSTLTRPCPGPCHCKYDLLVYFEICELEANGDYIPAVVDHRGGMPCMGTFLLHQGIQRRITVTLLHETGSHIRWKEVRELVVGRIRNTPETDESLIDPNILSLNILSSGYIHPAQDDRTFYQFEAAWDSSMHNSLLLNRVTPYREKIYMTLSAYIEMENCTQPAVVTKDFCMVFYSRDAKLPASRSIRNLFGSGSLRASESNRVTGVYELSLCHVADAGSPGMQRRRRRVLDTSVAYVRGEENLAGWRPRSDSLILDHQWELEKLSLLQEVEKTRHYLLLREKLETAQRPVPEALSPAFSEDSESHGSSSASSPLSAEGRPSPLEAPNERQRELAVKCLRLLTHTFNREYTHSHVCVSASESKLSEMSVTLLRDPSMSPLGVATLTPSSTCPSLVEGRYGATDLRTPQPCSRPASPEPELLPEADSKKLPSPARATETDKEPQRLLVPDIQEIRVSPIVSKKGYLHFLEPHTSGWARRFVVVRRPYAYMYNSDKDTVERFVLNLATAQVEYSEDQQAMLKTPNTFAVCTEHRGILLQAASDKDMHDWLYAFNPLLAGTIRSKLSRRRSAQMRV
UniProt O60333: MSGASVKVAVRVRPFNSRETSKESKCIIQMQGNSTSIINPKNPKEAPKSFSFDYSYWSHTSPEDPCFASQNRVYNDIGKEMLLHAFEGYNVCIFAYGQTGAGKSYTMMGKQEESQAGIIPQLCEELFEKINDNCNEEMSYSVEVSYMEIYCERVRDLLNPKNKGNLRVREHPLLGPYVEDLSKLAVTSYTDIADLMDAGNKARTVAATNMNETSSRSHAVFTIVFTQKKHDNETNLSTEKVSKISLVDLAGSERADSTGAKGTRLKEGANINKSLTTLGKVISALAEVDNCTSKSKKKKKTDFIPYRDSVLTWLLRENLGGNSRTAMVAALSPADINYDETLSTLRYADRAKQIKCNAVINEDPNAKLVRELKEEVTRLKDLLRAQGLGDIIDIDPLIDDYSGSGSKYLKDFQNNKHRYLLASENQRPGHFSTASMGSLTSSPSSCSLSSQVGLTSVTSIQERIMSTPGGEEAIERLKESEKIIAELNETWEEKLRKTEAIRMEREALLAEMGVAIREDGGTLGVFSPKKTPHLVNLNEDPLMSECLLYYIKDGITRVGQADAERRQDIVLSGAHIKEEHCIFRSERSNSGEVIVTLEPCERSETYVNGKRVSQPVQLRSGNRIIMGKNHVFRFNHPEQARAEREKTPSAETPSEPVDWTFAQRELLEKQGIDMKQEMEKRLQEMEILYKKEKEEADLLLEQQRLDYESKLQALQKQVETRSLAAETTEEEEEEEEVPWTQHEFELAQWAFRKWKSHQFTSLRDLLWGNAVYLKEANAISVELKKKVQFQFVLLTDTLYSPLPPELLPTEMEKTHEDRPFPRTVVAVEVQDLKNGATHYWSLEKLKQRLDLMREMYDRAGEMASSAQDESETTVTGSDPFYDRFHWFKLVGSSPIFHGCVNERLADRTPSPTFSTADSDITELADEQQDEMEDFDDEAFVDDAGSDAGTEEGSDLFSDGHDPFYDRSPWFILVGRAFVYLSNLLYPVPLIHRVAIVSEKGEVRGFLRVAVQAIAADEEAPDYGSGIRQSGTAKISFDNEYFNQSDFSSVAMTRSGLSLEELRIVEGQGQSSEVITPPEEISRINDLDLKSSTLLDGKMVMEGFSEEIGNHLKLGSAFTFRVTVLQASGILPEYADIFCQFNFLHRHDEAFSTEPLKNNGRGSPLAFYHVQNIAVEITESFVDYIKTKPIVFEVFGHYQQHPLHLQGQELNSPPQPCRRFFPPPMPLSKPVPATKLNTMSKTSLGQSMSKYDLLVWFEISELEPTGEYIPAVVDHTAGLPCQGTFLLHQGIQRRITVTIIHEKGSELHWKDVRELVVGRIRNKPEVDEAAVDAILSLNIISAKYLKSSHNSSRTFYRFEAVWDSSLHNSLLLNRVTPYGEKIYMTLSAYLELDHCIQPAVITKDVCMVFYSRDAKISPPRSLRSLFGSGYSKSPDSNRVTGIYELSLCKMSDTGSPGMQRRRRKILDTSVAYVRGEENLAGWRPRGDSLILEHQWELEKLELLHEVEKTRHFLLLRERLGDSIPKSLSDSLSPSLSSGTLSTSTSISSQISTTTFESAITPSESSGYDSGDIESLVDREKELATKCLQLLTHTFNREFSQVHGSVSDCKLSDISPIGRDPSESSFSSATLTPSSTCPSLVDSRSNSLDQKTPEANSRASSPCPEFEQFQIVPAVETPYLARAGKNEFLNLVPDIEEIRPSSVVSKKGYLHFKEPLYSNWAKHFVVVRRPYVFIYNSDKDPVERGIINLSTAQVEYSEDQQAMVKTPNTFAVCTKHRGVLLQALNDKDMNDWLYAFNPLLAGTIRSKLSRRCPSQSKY

T1: KIF1C-BioID-3XFLAG (human) (UniProt O43896)
T1 sequence: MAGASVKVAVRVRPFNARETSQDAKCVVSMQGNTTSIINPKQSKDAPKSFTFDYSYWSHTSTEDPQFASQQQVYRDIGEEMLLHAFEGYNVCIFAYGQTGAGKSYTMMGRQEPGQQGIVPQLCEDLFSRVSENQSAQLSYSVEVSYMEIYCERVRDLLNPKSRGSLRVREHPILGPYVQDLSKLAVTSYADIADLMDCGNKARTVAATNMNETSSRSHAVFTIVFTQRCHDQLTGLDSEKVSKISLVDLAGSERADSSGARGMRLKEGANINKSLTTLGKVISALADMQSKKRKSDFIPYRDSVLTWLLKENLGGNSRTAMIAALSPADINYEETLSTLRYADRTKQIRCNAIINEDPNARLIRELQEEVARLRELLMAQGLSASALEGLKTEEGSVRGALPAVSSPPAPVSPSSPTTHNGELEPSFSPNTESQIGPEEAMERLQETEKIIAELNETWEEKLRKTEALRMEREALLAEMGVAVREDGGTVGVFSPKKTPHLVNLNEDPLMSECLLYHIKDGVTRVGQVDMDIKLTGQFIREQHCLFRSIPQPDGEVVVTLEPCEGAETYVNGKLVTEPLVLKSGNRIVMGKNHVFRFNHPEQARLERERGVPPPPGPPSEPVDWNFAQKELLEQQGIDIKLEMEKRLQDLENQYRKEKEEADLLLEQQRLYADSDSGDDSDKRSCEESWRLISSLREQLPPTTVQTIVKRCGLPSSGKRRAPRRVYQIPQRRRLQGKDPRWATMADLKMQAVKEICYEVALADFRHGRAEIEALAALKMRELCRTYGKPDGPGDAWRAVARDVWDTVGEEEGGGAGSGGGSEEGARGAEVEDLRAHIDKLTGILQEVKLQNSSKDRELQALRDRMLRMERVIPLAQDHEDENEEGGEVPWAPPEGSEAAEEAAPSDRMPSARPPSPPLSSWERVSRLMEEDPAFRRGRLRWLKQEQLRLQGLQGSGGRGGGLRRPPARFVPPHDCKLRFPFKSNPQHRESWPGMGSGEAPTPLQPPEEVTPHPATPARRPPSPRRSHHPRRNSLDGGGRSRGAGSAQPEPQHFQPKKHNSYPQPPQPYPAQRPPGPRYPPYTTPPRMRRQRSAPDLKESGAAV

T2: KIF1C-SNAPf-3XFLAG, full-length KIF1C (human) (UniProt O43896)
T2 sequence (chain, TMR via the SNAP-tag (in the TIRF assays)): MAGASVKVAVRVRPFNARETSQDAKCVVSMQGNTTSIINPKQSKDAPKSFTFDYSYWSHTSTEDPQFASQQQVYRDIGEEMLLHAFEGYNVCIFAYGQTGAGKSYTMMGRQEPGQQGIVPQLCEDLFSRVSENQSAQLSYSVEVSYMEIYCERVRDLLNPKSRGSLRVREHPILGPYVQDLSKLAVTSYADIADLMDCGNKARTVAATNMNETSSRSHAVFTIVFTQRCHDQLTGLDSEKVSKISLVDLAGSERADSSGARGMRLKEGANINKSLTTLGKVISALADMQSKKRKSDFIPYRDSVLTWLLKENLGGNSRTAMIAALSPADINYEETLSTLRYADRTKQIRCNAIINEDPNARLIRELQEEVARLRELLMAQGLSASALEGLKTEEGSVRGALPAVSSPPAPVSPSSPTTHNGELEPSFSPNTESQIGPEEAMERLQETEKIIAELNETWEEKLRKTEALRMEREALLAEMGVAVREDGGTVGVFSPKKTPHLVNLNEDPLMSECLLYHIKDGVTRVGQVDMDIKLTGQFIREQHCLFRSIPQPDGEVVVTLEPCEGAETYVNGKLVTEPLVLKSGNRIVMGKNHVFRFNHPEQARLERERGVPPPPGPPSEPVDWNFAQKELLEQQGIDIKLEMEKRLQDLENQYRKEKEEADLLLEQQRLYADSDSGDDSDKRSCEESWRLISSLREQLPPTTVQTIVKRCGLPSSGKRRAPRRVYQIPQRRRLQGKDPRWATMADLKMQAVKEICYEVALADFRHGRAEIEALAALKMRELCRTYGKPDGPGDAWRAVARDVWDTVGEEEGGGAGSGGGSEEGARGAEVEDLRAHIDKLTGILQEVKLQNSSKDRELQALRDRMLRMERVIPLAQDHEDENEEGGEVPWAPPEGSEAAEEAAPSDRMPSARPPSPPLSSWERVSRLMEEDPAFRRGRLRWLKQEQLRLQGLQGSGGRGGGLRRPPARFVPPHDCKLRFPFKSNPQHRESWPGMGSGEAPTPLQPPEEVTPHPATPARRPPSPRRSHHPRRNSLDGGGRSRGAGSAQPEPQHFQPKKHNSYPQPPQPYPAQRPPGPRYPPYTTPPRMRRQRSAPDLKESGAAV

T3: KIF5B-BioID-3XFLAG (human), P33176
T3 chain: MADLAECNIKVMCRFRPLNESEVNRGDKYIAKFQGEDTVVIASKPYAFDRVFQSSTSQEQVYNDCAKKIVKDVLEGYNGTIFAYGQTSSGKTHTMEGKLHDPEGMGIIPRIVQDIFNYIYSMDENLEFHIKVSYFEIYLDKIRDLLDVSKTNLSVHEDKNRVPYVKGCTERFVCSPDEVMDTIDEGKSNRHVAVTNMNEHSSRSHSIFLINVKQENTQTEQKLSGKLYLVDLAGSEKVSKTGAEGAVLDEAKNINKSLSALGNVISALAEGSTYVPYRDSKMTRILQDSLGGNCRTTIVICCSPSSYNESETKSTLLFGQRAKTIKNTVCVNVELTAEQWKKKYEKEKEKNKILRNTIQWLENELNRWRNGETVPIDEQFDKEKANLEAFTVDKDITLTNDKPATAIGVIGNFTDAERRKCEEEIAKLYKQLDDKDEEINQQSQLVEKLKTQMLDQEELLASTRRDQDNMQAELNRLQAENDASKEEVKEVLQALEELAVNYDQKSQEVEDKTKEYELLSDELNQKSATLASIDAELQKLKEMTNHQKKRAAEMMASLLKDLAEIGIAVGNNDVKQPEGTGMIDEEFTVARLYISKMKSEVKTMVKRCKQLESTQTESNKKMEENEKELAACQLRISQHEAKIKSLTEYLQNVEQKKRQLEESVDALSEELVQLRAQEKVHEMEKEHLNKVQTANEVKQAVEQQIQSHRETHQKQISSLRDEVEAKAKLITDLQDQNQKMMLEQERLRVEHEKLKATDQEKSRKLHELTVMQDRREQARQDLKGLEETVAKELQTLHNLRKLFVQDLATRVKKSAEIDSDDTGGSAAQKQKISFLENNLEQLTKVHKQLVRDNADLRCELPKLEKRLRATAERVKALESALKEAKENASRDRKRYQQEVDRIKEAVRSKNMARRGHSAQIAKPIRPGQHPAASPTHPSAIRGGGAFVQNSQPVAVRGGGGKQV


What was measured:
Assay in all cases: co-IP
[1] = biological target: KIF1C^Δ794-807-SNAPf-3XFLAG (human) (UniProt O43896)
[2] = biological target: T1, KIF1C-BioID-3XFLAG (human)
[3] = biological target: KIF5C-BioID-3XFLAG (human) (UniProt O60282)
[4] = biological target: KIF5A-BioID-3XFLAG (human) (UniProt Q12840)
[5] = biological target: KIF1A-BioID-3XFLAG (human) (UniProt Q12756)
[6] = biological target: T2, KIF1C-SNAPf-3XFLAG, full-length KIF1C (human)
[7] = biological target: KIF1B-BioID-3XFLAG (human) (UniProt O60333)
[8] = biological target: T3, KIF5B-BioID-3XFLAG (human), P33176; details: remark: other sources report otherwise

Binder	binding [1]	binding [2]	binding [3]	binding [4]	binding [5]	binding [6]	binding [7]	binding [8]
HOOK3 (endogenous) (protein, UniProt Q86VS8 1-718) MFSVESLERAELCESLLTWIQTFNVDAPCQTVEDLTNGVVMAQVLQKIDPAYFDENWLNRIKTEVGDNWRLKISNLKKILKGILDYNHEILGQQINDFTLPDVNLIGEHSDAAELGRMLQLILGCAVNCEQKQEYIQAIMMMEESVQHVVMTAIQELMSKESPVSAGNDAYVDLDRQLKKTTEELNEALSAKEEIAQRCHELDMQVAALQEEKSSLLAENQVLMERLNQSDSIEDPNSPAGRRHLQLQTQLEQLQEETFRLEAAKDDYRIRCEELEKEISELRQQNDELTTLADEAQSLKDEIDVLRHSSDKVSKLEGQVESYKKKLEDLGDLRRQVKLLEEKNTMYMQNTVSLEEELRKANAARSQLETYKRQVVELQNRLSEESKKADKLDFEYKRLKEKVDSLQKEKDRLRTERDSLKETIEELRCVQAQEGQLTTQGLMPLGSQESSDSLAAEIVTPEIREKLIRLQHENKMLKLNQEGSDNEKIALLQSLLDDANLRKNELETENRLVNQRLLEVQSQVEELQKSLQDQGSKAEDSVLLKKKLEEHLEKLHEANNELQKKRAIIEDLEPRFNNSSLKIEELQEALRKKEEEMKQMEERYKKYLEKAKSVIRTLDPKQNQGAAPEIQALKNQLQERDRLFHSLEKEYEKTKSQREMEEKYIVSAWYNMGMTLHKKAAEDRLASTGSGQSFLARQRQATSSRRSYPGHVQPATAR	no binding	binds	no binding	no binding	no binding	binds	no binding	
HOOK3 (endogenous), Q86VS8 1-718 (protein) MFSVESLERAELCESLLTWIQTFNVDAPCQTVEDLTNGVVMAQVLQKIDPAYFDENWLNRIKTEVGDNWRLKISNLKKILKGILDYNHEILGQQINDFTLPDVNLIGEHSDAAELGRMLQLILGCAVNCEQKQEYIQAIMMMEESVQHVVMTAIQELMSKESPVSAGNDAYVDLDRQLKKTTEELNEALSAKEEIAQRCHELDMQVAALQEEKSSLLAENQVLMERLNQSDSIEDPNSPAGRRHLQLQTQLEQLQEETFRLEAAKDDYRIRCEELEKEISELRQQNDELTTLADEAQSLKDEIDVLRHSSDKVSKLEGQVESYKKKLEDLGDLRRQVKLLEEKNTMYMQNTVSLEEELRKANAARSQLETYKRQVVELQNRLSEESKKADKLDFEYKRLKEKVDSLQKEKDRLRTERDSLKETIEELRCVQAQEGQLTTQGLMPLGSQESSDSLAAEIVTPEIREKLIRLQHENKMLKLNQEGSDNEKIALLQSLLDDANLRKNELETENRLVNQRLLEVQSQVEELQKSLQDQGSKAEDSVLLKKKLEEHLEKLHEANNELQKKRAIIEDLEPRFNNSSLKIEELQEALRKKEEEMKQMEERYKKYLEKAKSVIRTLDPKQNQGAAPEIQALKNQLQERDRLFHSLEKEYEKTKSQREMEEKYIVSAWYNMGMTLHKKAAEDRLASTGSGQSFLARQRQATSSRRSYPGHVQPATAR								no binding
